According to publication doi:10.1101/842476:
No constants are given. Whether binding was seen depends on the method and setting. Binding seen in cells or lysates may run through a third protein. Some results given as binding are weak or reduced against the parent protein; the word gives no strength.

Chains of the proteins cited; added tags and fusions are not shown. Residues count along the entry.
UniProt Q5M848: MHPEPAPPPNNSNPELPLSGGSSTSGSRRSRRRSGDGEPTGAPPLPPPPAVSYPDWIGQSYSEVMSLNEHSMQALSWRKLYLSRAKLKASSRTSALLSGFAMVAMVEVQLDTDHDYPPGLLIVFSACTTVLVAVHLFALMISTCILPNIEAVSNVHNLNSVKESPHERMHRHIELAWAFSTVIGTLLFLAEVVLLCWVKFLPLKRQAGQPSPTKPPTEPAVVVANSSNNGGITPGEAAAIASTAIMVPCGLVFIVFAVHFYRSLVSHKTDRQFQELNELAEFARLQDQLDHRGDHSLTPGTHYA
UniProt P84903, residues 23-685: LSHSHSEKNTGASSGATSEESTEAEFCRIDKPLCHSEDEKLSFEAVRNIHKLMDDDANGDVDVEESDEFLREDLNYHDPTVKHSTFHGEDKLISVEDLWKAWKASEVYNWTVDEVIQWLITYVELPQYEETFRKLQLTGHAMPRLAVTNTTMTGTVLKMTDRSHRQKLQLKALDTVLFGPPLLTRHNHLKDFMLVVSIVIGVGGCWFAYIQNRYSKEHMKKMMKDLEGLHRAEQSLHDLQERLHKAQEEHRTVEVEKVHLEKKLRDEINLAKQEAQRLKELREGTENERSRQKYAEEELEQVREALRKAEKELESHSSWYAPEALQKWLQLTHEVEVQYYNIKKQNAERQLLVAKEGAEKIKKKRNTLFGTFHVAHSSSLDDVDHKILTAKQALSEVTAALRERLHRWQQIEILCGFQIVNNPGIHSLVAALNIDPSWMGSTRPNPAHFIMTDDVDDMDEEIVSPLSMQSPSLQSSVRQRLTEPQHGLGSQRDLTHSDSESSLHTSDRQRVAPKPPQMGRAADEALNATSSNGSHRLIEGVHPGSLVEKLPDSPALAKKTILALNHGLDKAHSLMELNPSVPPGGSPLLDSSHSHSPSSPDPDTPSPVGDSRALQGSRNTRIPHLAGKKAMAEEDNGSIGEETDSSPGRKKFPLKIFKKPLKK

How the values were obtained:
[1] = target: Orai1 (rat (endogenous in DRG neurons)) (UniProt Q5M848); test: proximity ligation
[2] = target: STIM1 (rat (endogenous in DRG neurons)) (UniProt P84903); test: proximity ligation
[3] = target: STIM1 (rat (endogenous in DRG neurons)) (UniProt P84903); test: co-IP

- binding [1]: binds
- binding [2]: binds
- binding [3]: binds weakly
B1: Junctophilin-4 (protein, UniProt Q69FB3 1-630)
chain: MHVPLGRKFDFDDGGCYVGGWEAGRAHGYGVCTGPGAQGEYSGCWAHGFESLGVFTGPGGHSYQGHWQQGKREGLGVERKSRWTYRGEWLGGLKGRSGVWESVSGLRYAGLWKDGFQDGYGTETYSDGGTYQGQWQAGKRHGYGVRQSVPYHQAALLRSPRRTSLDSGHSDPPTPPPPLPLPGDEGGSPASGSRGGFVLAGPGDADGASSRKRTPAAGGFFRRSLLLSGLRAGGRRSSLGSKRGSLRSEVSSEVGSTGPPGSEASGPPIPAPPALIEGSATEVYAGEWRADRRSGYGVSQRSNGLRYEGEWLGNRRHGYGRTTRPDGSREEGKYKRNRLVHGGRVRSLLPLALRRGKVKEKVDRAVEGARRAVSAARQRQEIAAARAADALLKAVAASSVAEKAVEAARMAKLIAQDLQPMLEAPGRRPRQDSGGSDTEPLDEDSPGVYENGLTPSEGSPELPSSPASSHQPWRAPPCRSPLPPGGNWGPFSSPKAWPEEWGGPGEQAEELAGYEAEDEAGMQGPGPRDGSPLLGGCSDSSGSLREEEGEDEESLPQLRAPGGSESEPVTTPVLRGLSSRGPDAGCLTEEFEEPAATERPAQPGAANPLVVGAVALLDLSLAFLFSQLLT
